Source: article PMC10407933 (The Journal of Organic Chemistry, 2023)
Some peptides are written in HELM: one residue between dots, names in brackets for other building blocks, links after the first $.

Assay: general procedure: Fmoc solid-phase peptide synthesis; Tentagel resin
Conditions: whole synthesis

Substance	isolated yield (over 8 steps)	isolated mass (scale 50 µmol)	isolated yield (scale 50 µmol)	isolated yield	isolated yield (over 9 steps)
PEPTIDE1{T.F.[alpha-N(pi)-ADPr-His*].G.A.G.L.V.V.P.V.D.K}$$$$V2.0	25%	11.9 mg	–	–	–
PEPTIDE1{T.F.[alpha-N(tau)-ADPr-His*].G.A.G.L.V.V.P.V.D.K}$$$$V2.0	36%	33.2 mg	35%	–	–
PEPTIDE1{T.F.[beta-N(pi)-ADPr-His*].G.A.G.L.V.V.P.V.D.K}$$$$V2.0	–	8.0 mg	–	25%	9%
PEPTIDE1{T.F.[beta-N(tau)-ADPr-His*].G.A.G.L.V.V.P.V.D.K}$$$$V2.0	–	24.7 mg	–	36%	26%
